For data set [1], the target named is TmCsp (cold shock protein) (Thermotoga maritima) (UniProt O54310). Description: EMSA. The conditions noted are these: 0.5 uM oligo, room temperature, EMSA: 50 mM NaH2PO4 pH 6.5, 20 mM NaCl, 0.2 mM EDTA, room temperature 1 h, 20% gel in 1xTBE at 4 C, recombinant protein, label: none (5'-fluorescein in EMSA), single-stranded DNA.
Data set [2] shares this target. Kind of data set: Trp fluorescence quenching. The conditions noted are these: recombinant protein, label: none (5'-fluorescein in EMSA), single-stranded DNA.
The mark [3] stands for this setting: up to 100 uM TmCsp (also 300 uM).

Sequences of proteins named here, by UniProt entry; tags and fusion partners are left off. A change or cut given only in a name is not applied to a line headed by its entry.
UniProt O54310: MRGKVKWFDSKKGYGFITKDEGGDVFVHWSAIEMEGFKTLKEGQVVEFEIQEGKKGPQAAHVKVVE

Construct, isoform or probe ends are uncertain for at least one entry. For some assays here: No signal at the amounts used counts as a negative.

For the sequence AAAAAAA [(dA)7], the binding result in data set [1] (setting [3]) was “no binding”. Besides, the Kd in data set [2] (323 K) worked out at 19.2 µM; in data set [2] (343 K), 25.2 µM.

In the case of CCCCCCC [(dC)7], the binding result in data set [1] (up to 100 uM TmCsp) is “no binding”.

On to GGGGGGG [(dG)7], for which, in data set [1] (setting [3]), the binding result is “no binding”.

Source of the values: paper PMC7704496.
